Experimental data reported in patent EP0552417B1 (priority 1991, dated 1993).
Strings that start with PEPTIDE1 are HELM notation: dots part the residues, brackets hold end groups and non-standard residues. Non-standard residues stand in square brackets, D forms with d. *: point of attachment. Hyp = O=C(O)[C@@H]1C[C@@H](O)CN1; dTle = CC(C)(C)[C@@H](N)C(=O)O; OPac = O=C(CO*)c1ccccc1; Boc = CC(C)(C)OC(=O)*; OBn = c1ccc(CO*)cc1; Bn = c1ccc(C*)cc1; For = O=C*

Assay: general procedure: solution-phase peptide synthesis; DCC/HONB (ONB active esters)
Conditions: coupling step

Question: Which step yield does the source give for “PEPTIDE1{[dD].D.W.[dL].L.[dW]}$PEPTIDE1,PEPTIDE1,6:R2-1:R1$$$V2.0” here?
Answer: 90.0%

Question: For Boc-[dW][dD](OBn)[Hyp](Bn)D(OBn)-OPac, which step yield is on record?
Answer: 98.9%

Question: Which step yield does the source give for cyclo([dD]WD[dL]L[dW](For)) here?
Answer: 91.1%

Question: Which step yield does the source give for Boc-[dD](OBn)E(OBn)A[dL]L-OPac here?
Answer: 87.6%

Question: Which step yield does the source give for “Boc-D-Asp(OBzl)-Asn(CH2Ph)-Asp(OBzl)-D-Leu-Leu-OPac” here?
Answer: 93.9%

Question: Which step yield does the source give for Boc-[dL]L[dW][dD](OBn)-OPac here?
Answer: 90.5%

Question: With Boc-[dW]D(OBn)WD(OBn)-OPac as the substance, how does the step yield read?
Answer: 80.3%

Question: For Boc-[dD](OBn)PD(OBn)[dL]L-OPac, which step yield is on record?
Answer: 91.2%

Question: For “PEPTIDE1{[dD].W.E.[dL].L.[dW]}$PEPTIDE1,PEPTIDE1,6:R2-1:R1$$$V2.0”, which step yield is on record?
Answer: 98.2%

Question: With Boc-[dTle]L[dW][dD](OBn)WD(OBn)-OPac as the substance, how does the step yield read?
Answer: 96.4%

Question: Which step yield does the source give for “Boc-D-Thg(2)-Leu-D-Trp-D-Asp(OBzl)-Trp-Asp(OBzl)-OPac” here?
Answer: 90.9%

Question: For “Boc-D-Thg(2)-Leu-D-Trp-D-Asp(OBzl)-Gln(Bzl)-Asp(OBzl)-OPac”, which step yield is on record?
Answer: 97.9%

Question: For Boc-PD(OBn)[dL]L-OPac, which step yield is on record?
Answer: 89.5%

Question: With Boc-[dW][dD](OBn)D(OBn)A[dL]L-OPac as the substance, how does the step yield read?
Answer: 77.0%

Question: For “Boc-D-Asp(OBzl)-Asn(CH2CH2Ph)-Asp(OBzl)-D-Leu-Leu-OPac”, which step yield is on record?
Answer: 93.5%

Question: With Boc-[dD](OBn)GA[dL]L-OPac as the substance, how does the step yield read?
Answer: 87.3%

Question: For “PEPTIDE1{[dD].W.D.[Acpe].L.[dW]}$PEPTIDE1,PEPTIDE1,1:R1-6:R2$$$V2.0”, which step yield is on record?
Answer: 84.3%

Question: Which step yield does the source give for “Boc-D-Trp-D-Asp(OBzl)-Asn(CH2Ph)-Asp(OBzl)-D-Leu-Leu-OPac” here?
Answer: 81.6%

Question: Which step yield does the source give for “Boc-Asn(CH2CH2-Ind)-Asp(OBzl)-D-Leu-Leu-OPac” here?
Answer: 78.1%

Question: For “Boc-[dW][dD](OBn)[Hyp](Bn)D(OBn)[dL]L-OPac”, which step yield is on record?
Answer: 91.4%

Question: Which step yield does the source give for “Boc-D-Thg(2)-Leu-D-Trp-D-Asp(OBzl)-Hyp(Bzl)-Asp(OBzl)-OPac” here?
Answer: 98.0%

Question: For “PEPTIDE1{[dD].[dP].D.[dL].L.[dW]}$PEPTIDE1,PEPTIDE1,6:R2-1:R1$$$V2.0”, which step yield is on record?
Answer: 84.3%

Question: With “Boc-Leu-D-Trp-D-Asp(OBzl)-Asn(CH2CH2-Ind)-Asp(OBzl)-OPac” as the substance, how does the step yield read?
Answer: 91.4%

Same assay, conditions: cyclisation step

Question: With “cyclo[-D-Asp-Orn(COCH2Ph)-Asp-D-Leu-Leu-D-Trp-]” as the substance, how does the cyclisation yield read?
Answer: 2.9%

Question: For “cyclo([dD](OBn)[Hyp](Bn)D(OBn)[dL]L[dW])”, which cyclisation yield is on record?
Answer: 82.6%

Question: Which cyclisation yield does the source give for cyclo([dD]DA[dL]L[dW]) here?
Answer: 17.8%

Question: With “cyclo[-D-Asp-Asn(CH2CH2-Ind)-Asp-D-Leu-Leu-D-Trp-]” as the substance, how does the cyclisation yield read?
Answer: 19.4%

Question: With “cyclo[-D-Asp-Orn(COPh)-Asp-D-Leu-Leu-D-Trp-]” as the substance, how does the cyclisation yield read?
Answer: 48.1%

Question: For “cyclo[-D-Asp-Asn(CH2Ph)-Asp-D-Leu-Leu-D-Trp-]”, which cyclisation yield is on record?
Answer: 23.8%

Question: Which cyclisation yield does the source give for “cyclo[-D-Asp-Asn(CH2CH2Ph)-Asp-D-Leu-Leu-D-Trp-]” here?
Answer: 24.1%

Same assay, conditions: late stage modification step

Question: For “Boc-Orn(COCH2Ph)-Asp(OBzl)-D-Leu-Leu-D-Trp-D-Asp(OBzl)-OH”, which step yield is on record?
Answer: 97.2%

Question: For “Boc-D-Thg(2)-Leu-D-Trp-D-Asp(OBzl)-Hyp(Bzl)-Asp(OBzl)-OH”, which step yield is on record?
Answer: 99.7%

Question: Which step yield does the source give for “Boc-D-Thg(2)-Leu-D-Trp-D-Asp(OBzl)-Asn(CH2CH2-Ind)-Asp(OBzl)-OH” here?
Answer: 98.0%

Question: For Boc-[dTle]L[dW][dD](OBn)WD(OBn)-OH, which step yield is on record?
Answer: 97.6%

Question: With “Boc-D-Trp-D-Asp(OBzl)-Asn(CH2CH2-Ind)-Asp(OBzl)-D-Leu-Leu-OH” as the substance, how does the step yield read?
Answer: 92.5%

Question: With “Boc-D-Trp-D-Asp(OBzl)-Asn(CH2Ph)-Asp(OBzl)-D-Leu-Leu-OH” as the substance, how does the step yield read?
Answer: 96.1%

Question: Which step yield does the source give for “Boc-D-Trp-D-Asp(OBzl)-Asn(CH2CH2Ph)-Asp(OBzl)-D-Leu-Leu-OH” here?
Answer: 97.3%

Question: With “Boc-D-Thg(2)-Leu-D-Trp-D-Asp(OBzl)-Trp-Asp(OBzl)-OH” as the substance, how does the step yield read?
Answer: 98.3%

Question: With “Boc-Orn(COPh)-Asp(OBzl)-D-Leu-Leu-D-Trp-D-Asp(OBzl)-OH” as the substance, how does the step yield read?
Answer: 97.8%

Question: For “PEPTIDE1{[dD].V.D.[dL].L.[dW]}$PEPTIDE1,PEPTIDE1,6:R2-1:R1$$$V2.0”, which step yield is on record?
Answer: 93.5%
